According to US20220396614A1:
No constants are given. Whether binding was seen depends on the method and setting. Some binding calls cover weakened binding; strength is not graded here.

How the values were obtained:
[1] = target: NANP 5.5-mer peptide, NP(NANP)5, representative of the PfCSP central repeat (Plasmodium falciparum (NF54)); assay: SPR, KD on a log axis
[2] = target: T1, NPDP peptide (…), PfCSP N-terminal junction aa 101-116 (Plasmodium falciparum (NF54)); assay: SPR, KD on a log axis
T1 sequence (peptide): NPDPNANPNVDPNANP

[3] = target: T2, KQPA peptide (…), PfCSP N-terminal junction aa 95-109 (Plasmodium falciparum (NF54)); assay: SPR, KD on a log axis
T2 sequence (peptide): KQPADGNPDPNANPN

[4] = target: NANP 5.5-mer peptide, NP(NANP)5, representative of the PfCSP central repeat (Plasmodium falciparum (NF54)); assay: SPR (FIG. 5H)
[5] = target: T1, NPDP peptide (…), PfCSP N-terminal junction aa 101-116 (Plasmodium falciparum (NF54)); assay: SPR (FIG. 5H)
[6] = target: T2, KQPA peptide (…), PfCSP N-terminal junction aa 95-109 (Plasmodium falciparum (NF54)); assay: SPR (FIG. 5H)

Measured: binding

B1: monoclonal antibody 2541 (antibody, V domains shown)
VH: QVQLVESGGGVVQPGRSLRLSCAASGFTFSSYGMHWVRQTTGKGLEWVAIIWHDGSKKYYADSVKGRLTISRDNSKNTLYLQMNSLRVEDTALYYCARVGDYSDFKYGAFDIWGQGTMVTVSS
VL: DIQMTQSPSTLSASVGDRVTITCRASQSISSWLAWYQQKPGKAPNLLIYKASTLESGVPSRFSGSGSGTEFTLTISSLQPDDFATYYCQQYNSYWTFGQGTRVEIK
binds: all assays above
